# Experimental data: PubChem BioAssay AID248 (DTP/NCI, 2004)
# The list does not hold the whole screen: it gathers tests that were run many times, whatever their T/C, doses with no T/C, and many T/C values between a quarter and a half above the control. Further doses and runs are listed elsewhere. T/C is the treated group as % of the vehicle group. Some doses have a count of surviving animals in place of a T/C: the source holds a T/C of zero for them, seemingly a mark for toxic or unscored doses. Some doses without a T/C left all or most animals alive at the check, yet need not have been tolerated: the source hardly ever lists a survival T/C far under the control, and the zero likely stands for such cases as well. Counts of survivors are from the toxicity check (mostly the fifth day) where no day follows; animals may have died later. Schedule codes are those of the source, taken here to give the interval after Q, in days (D) or hours (H), and the number of doses after X. Some schedules carry Z or #; the key to these is not given. Some entries were tested several times; the results are listed from low to high.
# Test system: L1210 leukemia ip in BDF1 mice, survival T/C
# Assay: NCI In Vivo Anticancer Drug Screen. Data for tumor model L1210 Leukemia (intraperitoneal) in B6D2F1 (BDF1) mice
# Settings: T/C endpoint: mean survival time, higher T/C = longer survival
# [1] = dose: 400.0 mg/kg/injection, schedule: Q01DX001 (ip), vehicle: carboxymethylcellulose (CMC)
# [2] = dose: 400.0 mg/kg/injection, schedule: Q01DX009 (ip), vehicle: saline with Tween-80
structure (smiles),measurement,setting,value
Cc1ncc(CO)c(/C=N/N=C(N)N)c1O,survivor count,"dose: 60.0 mg/kg/injection, schedule: Q01DX Z (oral), vehicle: methylcellulose (MC)",6 of 6
CCc1ccc(N=C/C=C/c2ccccc2)cc1,survivor count,"dose: 200.0 mg/kg/injection, schedule: Q01DX009 (ip), vehicle: other",1 of 6
same,survivor count,"dose: 400.0 mg/kg/injection, schedule: Q01DX009 (ip), vehicle: other",0 of 6
[Cl][Co][Cl].[NH-]CCC[NH-].[NH-]CCC[NH-],survivor count,"dose: 200.0 mg/kg/injection, schedule: Q04DX003 (ip), vehicle: saline",1 of 6
same,survivor count,"dose: 400.0 mg/kg/injection, schedule: Q04DX003 (ip), vehicle: saline",0 of 6
O=[N+]([O-])/C=C/c1cccs1,survivor count,"dose: 400.0 mg/kg/injection, schedule: Q01DX001 (ip), vehicle: Klucel (hydroxypropylcellulose) (HPC)",0 of 6
O=C(Nc1ccccc1)OC1CCC2CC21 (stereo unspecified),survivor count,"dose: 200.0 mg/kg/injection, schedule: Q01DX009 (ip), vehicle: saline with Tween-80",3 of 3
O=C(O)c1cc(=O)cc(C(=O)O)o1,survivor count,"dose: 200.0 mg/kg/injection, schedule: Q04DX003 (ip), vehicle: saline with Tween-80",2 of 6
same,survivor count,"dose: 400.0 mg/kg/injection, schedule: Q04DX003 (ip), vehicle: saline with Tween-80",1 of 6
CN1CCC=C(C(=O)O)C1,survivor count,[1],2 of 4
CC(=O)[O][Hg][c]1cc2c(cc1N)Cc1cc([N+](=O)[O-])ccc1-2,survivor count,"dose: 25.0 mg/kg/injection, schedule: Q01DX001 (ip), vehicle: carboxymethylcellulose (CMC)",2 of 6
same,survivor count,"dose: 50.0 mg/kg/injection, schedule: Q01DX001 (ip), vehicle: carboxymethylcellulose (CMC)",0 of 6
same,survivor count,"dose: 100.0 mg/kg/injection, schedule: Q01DX001 (ip), vehicle: carboxymethylcellulose (CMC)",0 of 6 and 1 of 4
same,survivor count,"dose: 200.0 mg/kg/injection, schedule: Q01DX001 (ip), vehicle: carboxymethylcellulose (CMC)",0 of 4
same,survivor count,[1],0 of 4
CC(=O)Nc1ccc(Cl)cc1C(=O)c1ccc[nH]1,survivor count,"dose: 100.0 mg/kg/injection, schedule: Q01DX009 (ip), vehicle: saline",6 of 6
same,survivor count,"dose: 200.0 mg/kg/injection, schedule: Q01DX009 (ip), vehicle: saline",5 of 6
same,survivor count,"dose: 400.0 mg/kg/injection, schedule: Q01DX009 (ip), vehicle: saline",6 of 6
CCC(/C=C1\Sc2ccc(C)cc2N1CC)=C\c1sc2ccc(OC)cc2[n+]1CC,survivor count,"dose: 8.0 mg/kg/injection, schedule: Q01DX001 (ip), vehicle: other",0 of 6
same,survivor count,"dose: 9.5 mg/kg/injection, schedule: Q01DX001 (ip), vehicle: other",0 of 6
same,survivor count,"dose: 19.0 mg/kg/injection, schedule: Q01DX001 (ip), vehicle: other",0 of 6
same,survivor count,"dose: 38.0 mg/kg/injection, schedule: Q01DX001 (ip), vehicle: other",0 of 6
same,survivor count,"dose: 75.0 mg/kg/injection, schedule: Q01DX001 (ip), vehicle: other",0 of 6
same,survivor count,"dose: 150.0 mg/kg/injection, schedule: Q01DX001 (ip), vehicle: other",0 of 6
same,survivor count,"dose: 300.0 mg/kg/injection, schedule: Q01DX001 (ip), vehicle: other",0 of 6
CN(C)c1nc(N)c(N)c(N)n1,survivor count,"dose: 200.0 mg/kg/injection, schedule: Q01DX001 (ip), vehicle: saline with Tween-80",1 of 3
same,survivor count,"dose: 400.0 mg/kg/injection, schedule: Q01DX001 (ip), vehicle: saline with Tween-80",0 of 3
O=C(CNC(c1ccccc1)(c1ccccc1)c1ccccc1)OC(c1ccccc1)c1ccccc1,survivor count,[2],6 of 6
CCCCCCCCCC(=O)N1C(C)CCC1C (stereo unspecified),survivor count,"dose: 400.0 mg/kg/injection, schedule: Q04DX002 (ip), vehicle: other",1 of 3
IC1CCC(I)C2CCC1O2 (stereo unspecified) (tested in a mixture with another compound),survivor count,"dose: 100.0 mg/kg/injection, schedule: Q04DX003 (ip), vehicle: Klucel (hydroxypropylcellulose) (HPC)",6 of 6
COC1(c2ccc([N+](=O)[O-])o2)OC1(C)C (stereo unspecified),survivor count,[2],1 of 6
